We go through 14 compounds from the supplement of paper PMC4840960.

Some of the results follow. Plates or batches differ in their baseline, so values are only roughly comparable.

The subject of the test is E18 rat cortical neuron-glia co-culture. The test is described as follows: total nuclei (DAPI) / Olig2+ nuclei (ratio); higher = more depletion of OPC/OL lineage cells. As to conditions: treatment time: 8 days (DIV5-DIV13).

As for `O=c1[nH]c(=O)n(C2CCCO2)cc1F` (stereo not drawn) [Tegafur], the total nuclei by setting is: (1 µM) 6.33; (5 µM) 18.

Consider `Cc1onc(-c2c(Cl)cccc2Cl)c1C(=O)N[C@@H]1C(=O)N2[C@@H]1SC(C)(C)[C@@H]2C(=O)O` [Dicloxacillin], for which the total nuclei was 4.3 (1 µM) and 3.8 (5 µM).

Regarding `Nc1c2c(nc3c1CCC3)CCCC2` [Amiridine], the total nuclei (1 µM) is 4.02 and the total nuclei (5 µM) worked out at 5.

As for `CC(Cc1ccccc1)(NC(=O)CN)c1ccccc1` (stereo not drawn) [Remacemide], the total nuclei stood at 2.64 (1 µM) and 2.7 (5 µM).

In the case of `CC(=O)OCC(=O)[C@@]1(O)CC[C@H]2[C@@H]3CCC4=CC(=O)CC[C@]4(C)[C@H]3C(=O)C[C@@]21C` [Cortisone acetate], the total nuclei was 3.18 (1 µM) and 3.5 (5 µM).

As for `CCOC(=O)c1ccc(OC(=O)CCCCCNC(=N)N)cc1` [Gabexate], the total nuclei by setting is: (1 µM) 3.38; (5 µM) 3.8.

As to `OCc1cccnc1` [Nicotinyl Alcohol], the total nuclei is, setting by setting: (1 µM) 2.7; (5 µM) 2.9.

As to `COc1cc(C)nc(-n2nc(C)cc2OC)n1` [Epirizole], the total nuclei was found to be 2.8 (1 µM) and 2.9 (5 µM).

Consider `Cc1cn([C@H]2C[C@H](N=[N+]=[N-])[C@@H](CO)O2)c(=O)[nH]c1=O` [Zidovudine], for which the total nuclei runs as follows: (1 µM) 2.67; (5 µM) 2.8.

As to `Cc1onc(-c2ccccc2)c1-c1ccc(S(N)(=O)=O)cc1` [Valdecoxib], the total nuclei reads like this: (1 µM) 4.31; (5 µM) 3.7.

As for `CC(=O)CC(c1ccccc1)c1c(O)c2ccccc2oc1=O` (stereo not drawn) [Warfarin], the total nuclei runs as follows: (1 µM) 3.95; (5 µM) 4.

With `CCN1CCCC1CNC(=O)c1cc(S(=O)(=O)CC)ccc1OC` (stereo not drawn) [Sultopride], the total nuclei was 4.63 (1 µM) and 4.2 (5 µM).

On to `CCN(CC)C(=O)C1(c2ccccc2)CC1CN` (stereo not drawn) [Milnacipran], for which the total nuclei turned out to be 2.69 (1 µM) and 2.7 (5 µM).

Consider `Cc1cccc(CN2CCN(C(c3ccccc3)c3ccc(Cl)cc3)CC2)c1` (stereo not drawn) [Meclizine], for which the total nuclei was 5.54 (1 µM) and 33.8 (5 µM).
